# This is one part of the list.
# B1: Nc3LysM-2 (protein)
# chain: AHVLQARQSVSCDFATAANTGDTCASFAAAWGITEAAFAKLNPGVSCPGNLIAGSEYCVIGTVSTGAPTTTKAATTSTTPPTTTTTTKATTLSTSTTSVSPTGPSPQMPSITSTCNKFYQVQSGDGCWSIEQAQGVSASDFMAWNKAVDAQCDNLWLGYYVCVGVKGGSSPPPTTTTKPASSSAPTPQMPNTVSNCKKFHKVVSGDGCWAIEQAAGISASDFAKWNPYVDAACDNLWLGYYVCIGV
# Columns and labels:
# Test in all cases: glycan array binding signal (z-score within array); higher = stronger binding
# Conditions in all cases: glycan notation: IUPAC condensed, linker removed
# Glc(b1-6)Glc = target: Glc(b1-6)Glc
# Summary of the method: (§1)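 The binding signal is a Z-score computed within each array and averaged over linkers. Arrays of the same protein sequence at different concentrations or buffers were also averaged together. Data originate from 3228 arrays in the Consortium for Functional Glycomics database, kept only where the protein sequence was available.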
# GlcA(b1-3)Gal = target: GlcA(b1-3)Gal
# Summary of the method: as §1
# GlcA(b1-3)GlcNAc = target: GlcA(b1-3)GlcNAc
# Summary of the method: as §1
# GlcA(b1-6)Gal = target: GlcA(b1-6)Gal
# Summary of the method: as §1
# [1] = target: GlcA3S(b1-3)Gal(b1-4)GlcNAc(b1-2)Man
# Summary of the method: as §1
# [2] = target: GlcA3S(b1-3)Gal(b1-4)GlcNAc(b1-3)Gal(b1-4)Glc
# Summary of the method: as §1
# [3] = target: GlcNAc(a1-3)Gal(b1-4)GlcNAc
# Summary of the method: as §1
# [4] = target: GlcNAc(a1-4)Gal(b1-3)GlcNAc
# Summary of the method: as §1
# [5] = target: GlcNAc(a1-4)Gal(b1-4)GalNAc
# Summary of the method: as §1
# [6] = target: GlcNAc(a1-4)Gal(b1-4)GlcNAc
# Summary of the method: as §1
# [7] = target: GlcNAc(a1-4)Gal(b1-4)GlcNAc(b1-3)Gal(b1-4)Glc
# Summary of the method: as §1
# [8] = target: GlcNAc(a1-4)Gal(b1-4)GlcNAc(b1-3)Gal(b1-4)GlcNAc
# Summary of the method: as §1
# [9] = target: GlcNAc(a1-4)Gal(b1-4)GlcNAc(b1-3)Gal(b1-4)GlcNAc(b1-3)Gal(b1-4)GlcNAc
# Summary of the method: as §1
# [10] = target: GlcNAc(a1-4)Gal(b1-4)GlcNAc(b1-3)Gal(b1-4)[Fuc(a1-3)]GlcNAc(b1-3)Gal(b1-4)[Fuc(a1-3)]GlcNAc
# Summary of the method: as §1
# [11] = target: GlcNAc(a1-6)Gal(b1-4)GlcNAc
# Summary of the method: as §1
# [12] = target: GlcNAc(b1-2)Gal(b1-3)GalNAc
# Summary of the method: as §1
# [13] = target: GlcNAc(b1-2)Man(a1-3)[GlcNAc(b1-2)Man(a1-6)]Man(b1-4)GlcNAc(b1-4)GlcNAc
# Summary of the method: as §1
# [14] = target: GlcNAc(b1-2)Man(a1-3)[GlcNAc(b1-2)Man(a1-6)]Man(b1-4)GlcNAc(b1-4)[Fuc(a1-6)]GlcNAc
# Summary of the method: as §1
# [15] = target: GlcNAc(b1-2)Man(a1-3)[GlcNAc(b1-4)][GlcNAc(b1-2)Man(a1-6)]Man(b1-4)GlcNAc(b1-4)GlcNAc
# Summary of the method: as §1
# [16] = target: GlcNAc(b1-2)Man(a1-3)[GlcNAc(b1-4)][GlcNAc(b1-2)Man(a1-6)]Man(b1-4)GlcNAc(b1-4)[Fuc(a1-6)]GlcNAc
# Summary of the method: as §1
# [17] = target: GlcNAc(b1-2)[GlcNAc(b1-4)]Man(a1-3)[GlcNAc(b1-2)Man(a1-6)]Man(b1-4)GlcNAc(b1-4)GlcNAc
# Summary of the method: as §1
# [18] = target: GlcNAc(b1-2)[GlcNAc(b1-4)]Man(a1-3)[GlcNAc(b1-4)][GlcNAc(b1-2)Man(a1-6)]Man(b1-4)GlcNAc(b1-4)GlcNAc
# Summary of the method: as §1
# [19] = target: GlcNAc(b1-2)[GlcNAc(b1-4)]Man(a1-3)[GlcNAc(b1-4)][GlcNAc(b1-2)[GlcNAc(b1-6)]Man(a1-6)]Man(b1-4)GlcNAc(b1-4)GlcNAc
# Summary of the method: as §1
# [20] = target: GlcNAc(b1-2)[GlcNAc(b1-4)]Man(a1-3)[GlcNAc(b1-4)][GlcNAc(b1-2)[GlcNAc(b1-6)]Man(a1-6)]Man(b1-4)GlcNAc(b1-4)[Fuc(a1-6)]GlcNAc
# Summary of the method: as §1
# [21] = target: GlcNAc(b1-2)[GlcNAc(b1-6)]Man(a1-6)[GlcNAc(b1-2)Man(a1-3)]Man(b1-4)GlcNAc(b1-4)GlcNAc
# Summary of the method: as §1
# [22] = target: GlcNAc(b1-2)[GlcNAc(b1-6)]Man(a1-6)[GlcNAc(b1-2)Man(a1-3)]Man(b1-4)GlcNAc(b1-4)[Fuc(a1-6)]GlcNAc
# Summary of the method: as §1
# [23] = target: GlcNAc(b1-2)[GlcNAc(b1-6)]Man(a1-6)[GlcNAc(b1-4)][GlcNAc(b1-2)Man(a1-3)]Man(b1-4)GlcNAc(b1-4)GlcNAc
# Summary of the method: as §1
# GlcNAc(b1-3)Fuc = target: GlcNAc(b1-3)Fuc
# Summary of the method: as §1
# GlcNAc(b1-3)Gal = target: GlcNAc(b1-3)Gal
# Summary of the method: as §1
# [24] = target: GlcNAc(b1-3)Gal(b1-3)GalNAc
# Summary of the method: as §1
# GlcNAc(b1-3)Gal(b1-4)Glc = target: GlcNAc(b1-3)Gal(b1-4)Glc
# Summary of the method: as §1
# [25] = target: GlcNAc(b1-3)Gal(b1-4)GlcNAc
# Summary of the method: as §1
# [26] = target: GlcNAc(b1-3)Gal(b1-4)GlcNAc(b1-2)Man(a1-3)[GlcNAc(b1-3)Gal(b1-4)GlcNAc(b1-2)Man(a1-6)]Man(b1-4)GlcNAc(b1-4)GlcNAc
# Summary of the method: as §1
# [27] = target: GlcNAc(b1-3)Gal(b1-4)GlcNAc(b1-2)Man(a1-3)[GlcNAc(b1-3)Gal(b1-4)GlcNAc(b1-2)Man(a1-6)]Man(b1-4)GlcNAc(b1-4)[Fuc(a1-6)]GlcNAc
# Summary of the method: as §1
# [28] = target: GlcNAc(b1-3)Gal(b1-4)GlcNAc(b1-2)[GlcNAc(b1-3)Gal(b1-4)GlcNAc(b1-6)]Man(a1-6)[GlcNAc(b1-3)Gal(b1-4)GlcNAc(b1-2)Man(a1-3)]Man(b1-4)GlcNAc(b1-4)GlcNAc
# Summary of the method: as §1
# [29] = target: GlcNAc(b1-3)Gal(b1-4)GlcNAc(b1-3)Gal(b1-4)GlcNAc
# Summary of the method: as §1
# [30] = target: GlcNAc(b1-3)Gal(b1-4)GlcNAc(b1-3)Gal(b1-4)GlcNAc(b1-2)Man(a1-3)[GlcNAc(b1-3)Gal(b1-4)GlcNAc(b1-3)Gal(b1-4)GlcNAc(b1-2)Man(a1-6)]Man(b1-4)GlcNAc(b1-4)GlcNAc
# Summary of the method: as §1
binder,measurement,setting,value
B1,glycan array binding signal (z-score),Glc(b1-6)Glc,-1.2
same,glycan array binding signal (z-score),GlcA(b1-3)Gal,0.063
same,glycan array binding signal (z-score),GlcA(b1-3)GlcNAc,-0.827
same,glycan array binding signal (z-score),GlcA(b1-6)Gal,2.36
same,glycan array binding signal (z-score),[1],0.714
same,glycan array binding signal (z-score),[2],-0.097
same,glycan array binding signal (z-score),[3],-0.659
same,glycan array binding signal (z-score),[4],-0.118
same,glycan array binding signal (z-score),[5],1.48
same,glycan array binding signal (z-score),[6],-0.277
same,glycan array binding signal (z-score),[7],-1.01
same,glycan array binding signal (z-score),[8],0.216
same,glycan array binding signal (z-score),[9],-0.569
same,glycan array binding signal (z-score),[10],1.78
same,glycan array binding signal (z-score),[11],1.22
same,glycan array binding signal (z-score),[12],-0.514
same,glycan array binding signal (z-score),[13],0.834
same,glycan array binding signal (z-score),[14],-0.159
same,glycan array binding signal (z-score),[15],-0.01
same,glycan array binding signal (z-score),[16],-0.543
same,glycan array binding signal (z-score),[17],-0.01
same,glycan array binding signal (z-score),[18],0.665
same,glycan array binding signal (z-score),[19],1.71
same,glycan array binding signal (z-score),[20],-0.569
same,glycan array binding signal (z-score),[21],-1.22
same,glycan array binding signal (z-score),[22],1.11
same,glycan array binding signal (z-score),[23],0.849
same,glycan array binding signal (z-score),GlcNAc(b1-3)Fuc,-0.531
same,glycan array binding signal (z-score),GlcNAc(b1-3)Gal,-0.043
same,glycan array binding signal (z-score),[24],-0.395
same,glycan array binding signal (z-score),GlcNAc(b1-3)Gal(b1-4)Glc,-1.54
same,glycan array binding signal (z-score),[25],1.5
same,glycan array binding signal (z-score),[26],0.484
same,glycan array binding signal (z-score),[27],-1.78
same,glycan array binding signal (z-score),[28],0.064
same,glycan array binding signal (z-score),[29],0.247
same,glycan array binding signal (z-score),[30],-0.123

# 9 entries from above, tab-delimited.
binder	measurement	setting	value
B1	glycan array binding signal (z-score)	[22]	1.11
same	glycan array binding signal (z-score)	[23]	0.849
same	glycan array binding signal (z-score)	GlcNAc(b1-3)Fuc	-0.531
same	glycan array binding signal (z-score)	GlcNAc(b1-3)Gal	-0.043
same	glycan array binding signal (z-score)	[24]	-0.395
same	glycan array binding signal (z-score)	GlcNAc(b1-3)Gal(b1-4)Glc	-1.54
same	glycan array binding signal (z-score)	[25]	1.5
same	glycan array binding signal (z-score)	[26]	0.484
same	glycan array binding signal (z-score)	[27]	-1.78
